From PubChem BioAssay AID1347076 (National Center for Advancing Translational Sciences (NCATS), 2019)
The campaign covered roughly 400,000 compounds. About 13,000 (3.2%) were called active. This list was built around the results that the source calls inconclusive (neither active nor inactive); the mix of calls is not that of the screen. Calls follow the shape of the dose curve; as a rule, active = well fitted cell-killing curve with a large enough effect; inconclusive = small, poorly fitted or top-dose-only effect, or effect the other way; inactive = flat fitted curve, though single readings scatter. Where the call is inconclusive, the potency comes from a doubtful curve fit.
% is scaled to controls: 0 for no effect and ±100 for the full control effect; potency is read from the fitted curve at half-maximal effect.

Assay: qHTS assay for MDR1-selective chemotherapeutics: Primary screen using the drug-selected MDR subline cells KB-V1; also: nearly all actives have a fitted effect of over 60% in size
Conditions: KB-V1 MDR cells viability, CellTiter-Glo, 72 h; activity change, negative = cytotoxicity: at 46.1 µM (top of the series)
How it was run: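 KB-V1 cells (P-gp-expressing MDR subline of KB-3-1) in phenol-red-free DMEM with 10% FBS were exposed to library compounds over a concentration series for 72 h at 37 degrees C. Viability read by CellTiter-Glo luminescence; concentration-effect curves fitted after normalization.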
In the case of `O=C1CCCc2c1[nH]c1ccc(Br)cc21`, the Potency is reported as active: 0.517 µM. For `CC(C)OCCCNC(=O)c1c(N)n(/N=C/c2cccs2)c2nc3ccccc3nc12`, the Potency was inconclusive: 2.91 µM [cytotoxic, partial curve, poor fit]. In the case of `O=C1c2[nH]nc(-c3ccccc3O)c2C(c2cccc(Cl)c2)N1Cc1ccco1` (centres undefined), the Potency is reported as active: 14.6 µM. In the case of `CCN(CC)c1ccc(NC(=O)c2cncc(Br)c2)cc1`, the Potency is reported as inconclusive: 9.2 µM [cytotoxic, partial curve, poor fit]. In the case of `CCc1cc2c(=O)c(-c3cnn(-c4ccccc4)c3)c(C)oc2cc1OCC(=O)Nc1ccc(F)c(F)c1`, the activity change, negative = cytotoxicity is reported as inconclusive: -69.9%. For `CC1CN(c2nc3c(c(=O)[nH]c(=O)n3C)n2Cc2ccccc2F)CC(C)O1` (centres undefined), the Potency was active: 18.4 µM. For `CCn1c(CN2CCC(C)CC2)nc2cc(NC(=O)COc3ccc([N+](=O)[O-])cc3)ccc21`, the “activity change, negative = cytotoxicity” value was inactive: 2.44%. With `c1ccc(SCc2cn3cccnc3n2)nc1` the “activity change, negative = cytotoxicity” value was inactive: 7.68%. In the case of `CCN(CC)CC(=O)N1c2ccccc2CCc2ccc(NC(=O)c3cc(OC)c(OC)c(OC)c3)cc21`, the “activity change, negative = cytotoxicity” value is reported as inactive: -6.76%. With `CC1=Nc2cc(C(=O)N3CCCC3)ccc2Sc2ccc(C)cc21` the “activity change, negative = cytotoxicity” value was inactive: 19.2%. For `O=c1n(Cc2ccccc2)c2cc(Cl)cnc2n1Cc1ccccc1`, the “activity change, negative = cytotoxicity” value was inactive: 0%. For `COc1ccc(CNC(=O)c2cccc(NC(=O)N3CCSc4ncccc43)c2)cc1`, the “activity change, negative = cytotoxicity” value was inactive: 11%. With `COc1cc(OC)cc(C(=O)N[C@H](C(=O)Nc2nc3ccc(S(C)(=O)=O)cc3s2)C(C)C)c1` the Potency was inconclusive: 5.8 µM [rising, full curve]. With `CCOC(=O)C(C)Sc1nc(-c2ccccn2)ncc1OC` (centres undefined) the Potency was inconclusive: 1.84 µM [cytotoxic, full curve]. For `CCOc1ccc(C(=O)c2cnc3ccccc3c2N2CCN(CC)CC2)cc1`, the Potency was inconclusive: 29.1 µM [rising, single point]. For `CCn1c(SCC(=O)NC2=NCCS2)nnc1C(C)NC(=O)c1ccc(Cl)cc1` (centres undefined), the Potency was inconclusive: 25.9 µM [rising, partial curve, poor fit]. For `O=C(COc1ccccc1)NCC(=O)NC1CCCCC1`, the “activity change, negative = cytotoxicity” value was inactive: 13.6%. For `Cc1ccc2cc(C3CC(c4cccs4)=NN3S(C)(=O)=O)c(Cl)nc2c1` (centres undefined), the Potency was inconclusive: 9.2 µM [cytotoxic, partial curve]. For `Cc1ccc(-c2cc3ncc(C#N)c(N)n3n2)cc1`, the Potency was inconclusive: 8.2 µM [cytotoxic, partial curve]. For `Cc1nonc1NC(=O)CSc1nnc(N)s1`, the Potency was inconclusive: 0.82 µM [rising, full curve, poor fit]. With `COC(=O)[C@]1(CC(C)C)N[C@H](c2ccc(-c3ccc(OC)cc3)cc2)[C@@H]2C(=O)N(C)C(=O)[C@@H]21` the Potency was inconclusive: 18.4 µM [cytotoxic, single point]. With `COc1ccc(-c2noc(N3CCC(C(=O)Nc4ccc(C)c(F)c4)CC3)n2)cc1OC` the “activity change, negative = cytotoxicity” value was inactive: -5.03%. For `O=C(NC1=NCCS1)c1ccccc1Cl`, the Potency was inconclusive: 29.1 µM [rising, single point]. For `CCOC(=O)C1CCN(C(=O)c2cc3c(-c4ccc(OC)c(OC)c4)nn(C)c3s2)CC1`, the “activity change, negative = cytotoxicity” value was inactive: -7.71%. With `COc1ccc(C(C)=O)cc1CS(=O)(=O)CC(=O)NCCc1c[nH]c2ccccc12` the “activity change, negative = cytotoxicity” value was inactive: -8.85%. For `CC(O)C(NS(=O)(=O)c1ccc(Cl)cc1)C(=O)OCC(=O)c1ccc2c(c1)NC(=O)CO2` (centres undefined), the Potency was inconclusive: 29.1 µM [rising, single point]. With `CCOC(=O)c1c(-c2ccc(C)cc2C)csc1NC(=O)CSc1nnnn1C` the Potency was inconclusive: 29.1 µM [cytotoxic, single point]. For `COc1cccc(/C=N/N2C(=O)CSC2=S)c1O`, the Potency was inconclusive: 16.4 µM [cytotoxic, single point]. In the case of `Cc1ccc(Sc2nnc(Cc3ccccc3)c3ccccc23)cc1`, the Potency is reported as inconclusive: 23.1 µM [cytotoxic, single point]. For `CC(NC(=O)c1cccc(OC2CCN(C3CCN(C)CC3)CC2)c1)c1ccccc1` (centres undefined), the Potency was inconclusive: 29.1 µM [rising, partial curve, poor fit]. In the case of `O=C(CSc1nnc(CNC(=O)c2ccccc2)o1)Nc1ccc2c(c1)OCCO2`, the activity change, negative = cytotoxicity is reported as inconclusive: 15.3%. In the case of `COc1ccc(C2C=C(C34CC5CC(CC(C5)C3)C4)NC(=S)N2)cc1OC` (centres undefined), the Potency is reported as active: 18.4 µM. In the case of `FC(F)(F)c1ccc(C2[C@H]3CN(Cc4cccnc4)[C@H](c4ccccc4)C34CC2(c2ccccc2)C4)cc1` (some centres undefined), the Potency is reported as inconclusive: 23.1 µM [cytotoxic, single point]. For `Cc1[nH]c2ccccc2c1C(=O)COC(=O)c1ccc[n+]([O-])c1`, the Potency was inconclusive: 18.4 µM [rising, single point]. For `COc1ccc(NC(=O)CCNS(=O)(=O)c2cccc3nsnc23)cc1OC`, the Potency was inconclusive: 20.6 µM [rising, single point]. For `COc1ccc(N(Cc2ccccc2)C(=O)c2nc(SC)ncc2Cl)cc1`, the Potency was inconclusive: 10.3 µM [cytotoxic, partial curve]. With `COc1ccc(N(CC(=O)NCC2CCCO2)C(=O)CCC(=O)Nc2cc(C)on2)cc1OC` (centres undefined) the “activity change, negative = cytotoxicity” value was inactive: -8.21%. With `CC1CCCC(NC(=O)c2cc(-c3ccncc3)nc3ccccc23)C1C` (centres undefined) the Potency was inconclusive: 16.4 µM [cytotoxic, partial curve]. With `CC(C)Cn1c(-c2csc(C(C)C)c2)n[nH]c1=S` the “activity change, negative = cytotoxicity” value was inactive: -9.53%. For `Cc1nn(C(C)(C)C)c(OC(=O)C2CCCC2)c1S(=O)(=O)c1ccccc1`, the Potency was inconclusive: 16.4 µM [cytotoxic, single point]. With `CCOC(=O)C1=C(CN2CCCCCC2)NC(=O)NC1c1ccc2c(c1)OCO2` (centres undefined) the Potency was inconclusive: 23.1 µM [cytotoxic, single point]. With `Cc1nccn1CCN(C)Cc1cn(Cc2ccccc2)nc1-c1ccc2c(c1)OCO2` the Potency was inconclusive: 5.17 µM [cytotoxic, full curve]. For `CC1CC(C)CN(C(=O)c2ccc(N3CC4CC(C3)c3cccc(=O)n3C4)c([N+](=O)[O-])c2)C1` (centres undefined), the Potency was inconclusive: 18.4 µM [cytotoxic, partial curve, poor fit]. In the case of `COC(=O)c1csc(C2OC(CO)C(O)C2O)n1` (centres undefined), the “activity change, negative = cytotoxicity” value is reported as inactive: 16.2%. For `CCCCCCCCCCC(C)(C)C(=O)Nc1c(OC)cc(OC)cc1OC`, the Potency was inconclusive: 32.6 µM [cytotoxic, single point]. In the case of `Cc1ccc(NC(=O)C(C)N2C(=O)C3CC=C(Cl)CC3C2=O)cc1` (centres undefined), the “activity change, negative = cytotoxicity” value is reported as inactive: 10.2%. For `COC(=O)c1c(NC(=O)CN2CCN(S(=O)(=O)c3ccccc3[N+](=O)[O-])CC2)sc2c1CCC(C)C2` (centres undefined), the Potency was inconclusive: 8.2 µM [cytotoxic, partial curve]. In the case of `CCc1ccc(S(=O)(=O)c2nnn3c2nc(NC2CCCC2)c2sccc23)cc1`, the “activity change, negative = cytotoxicity” value is reported as inactive: 0.777%. In the case of `COc1ccc(-n2c(C)cc(-c3csc(N)n3)c2C)cc1`, the Potency is reported as inconclusive: 20.6 µM [cytotoxic, partial curve, poor fit]. For `CCOc1ccccc1NC(=O)C1CCN(C(=O)Cc2ccccc2)CC1`, the Potency was inconclusive: 18.4 µM [cytotoxic, partial curve, poor fit]. With `Cc1ccc(CS(=O)Cc2ccc(C(=O)NCc3cccs3)o2)cc1` (centres undefined) the “activity change, negative = cytotoxicity” value was inactive: 1.95%. With `COC(=O)c1ccc(Nc2cc(C)nc3ccc(C)cc23)cc1` the Potency was inconclusive: 3.66 µM [cytotoxic, full curve, poor fit]. With `COc1ccc(CCC(=O)N(c2nnc(-c3cccnc3)s2)C(C)C)cc1` the Potency was inconclusive: 7.31 µM [cytotoxic, partial curve]. With `CCN1CCN(c2nc(N(C)c3ccccc3)nc(N)c2[N+](=O)[O-])CC1` the “activity change, negative = cytotoxicity” value was inactive: -25.7%. In the case of `CCOc1ccccc1NC(=O)CN1CCC(NC(=O)Nc2ccccc2)CC1`, the Potency is reported as inconclusive: 0.058 µM [rising, full curve, poor fit]. For `O=C(CCN1CCc2ccccc2C(c2ccccc2)C1)c1ccc2c(c1)OCCO2` (centres undefined), the Potency was inconclusive: 32.6 µM [cytotoxic, single point]. For `Cc1ccc(S(=O)(=O)N2CCC(=O)N(CCOC(=O)Nc3ccccc3C)CC2)cc1`, the Potency was inconclusive: 29.1 µM [rising, single point]. For `CC(C)C[C@H]1CNC(=S)N1C[C@H]1CCCN1C[C@H](Cc1ccc(O)cc1)N1C[C@H](Cc2ccccc2)N(CC2CCCCCC2)C1=S`, the Potency was inconclusive: 29.1 µM [cytotoxic, single point]. In the case of `CC(=O)Nc1ccc(-c2nn[nH]n2)cc1`, the Potency is reported as inconclusive: 18.4 µM [rising, partial curve, poor fit]. In the case of `COc1ccc(CCNC(=O)Cn2nnc(-c3ccc(N4CCOCC4)cc3)n2)cc1OC`, the Potency is reported as inconclusive: 6.51 µM [cytotoxic, partial curve]. For `O=C(CSc1ccc2ccccc2n1)Nc1nsc(-c2ccc(Cl)cc2)n1`, the activity change, negative = cytotoxicity was inconclusive: -38.6%. In the case of `O=C(Nc1cccc(Cl)c1)Nc1nc(-c2ccccc2)cs1`, the “activity change, negative = cytotoxicity” value is reported as inactive: 27%. With `COc1ccccc1N1CCN(S(=O)(=O)CCNC(=O)c2cc(OC)c(OC)c(OC)c2)CC1` the “activity change, negative = cytotoxicity” value was inactive: -1.55%. With `O=C(CSc1ncnc2nc[nH]c12)c1ccc2ccccc2c1` the “activity change, negative = cytotoxicity” value was inactive: -6.48%. With `CCc1ccc(/C=C2/Sc3ccccc3N(CC(=O)NCCCN3CCOCC3)C2=O)cc1` the “activity change, negative = cytotoxicity” value was inactive: -7.86%. For `CC(C)N(C(=O)[C@H]1C[C@H](CC(=O)NCc2cccc(C(F)(F)F)c2)C(=O)N2CCc3c([nH]c4cc(-c5ccco5)ccc34)[C@]12C)C(C)C`, the Potency was inconclusive: 29.1 µM [cytotoxic, single point]. In the case of `COc1ccc2nc(SCC(=O)NC3CCCCC3C)[nH]c2c1` (centres undefined), the Potency is reported as inconclusive: 13 µM [cytotoxic, partial curve]. With `S=c1[nH]nc(-c2cccnc2)n1/N=C/c1ccccc1` the “activity change, negative = cytotoxicity” value was inactive: 15.3%. With `S=c1[nH]nc(C2CCCCC2)n1/N=C/C=C/c1ccccc1` the Potency was inconclusive: 20.6 µM [cytotoxic, single point].
